Test results from the supplement of paper PMC10849652.
Some of the results follow.

Protein sequences, listed by entry. Tags and fused reporters are not part of them. Lines headed by an entry give the natural chain unless they say otherwise; changes in a name come on top.
UniProt Q9H4B0: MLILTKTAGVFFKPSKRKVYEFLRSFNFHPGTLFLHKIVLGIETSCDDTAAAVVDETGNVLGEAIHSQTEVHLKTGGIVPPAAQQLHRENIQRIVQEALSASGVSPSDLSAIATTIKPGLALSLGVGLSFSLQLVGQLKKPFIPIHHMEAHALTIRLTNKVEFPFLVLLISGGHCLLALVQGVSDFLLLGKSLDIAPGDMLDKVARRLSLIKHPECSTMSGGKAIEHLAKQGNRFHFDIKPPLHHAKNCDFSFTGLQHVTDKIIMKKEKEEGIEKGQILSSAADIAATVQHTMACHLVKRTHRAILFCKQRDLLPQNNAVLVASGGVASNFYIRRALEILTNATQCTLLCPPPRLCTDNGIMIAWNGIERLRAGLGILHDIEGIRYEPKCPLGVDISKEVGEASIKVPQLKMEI
UniProt Q9BY11: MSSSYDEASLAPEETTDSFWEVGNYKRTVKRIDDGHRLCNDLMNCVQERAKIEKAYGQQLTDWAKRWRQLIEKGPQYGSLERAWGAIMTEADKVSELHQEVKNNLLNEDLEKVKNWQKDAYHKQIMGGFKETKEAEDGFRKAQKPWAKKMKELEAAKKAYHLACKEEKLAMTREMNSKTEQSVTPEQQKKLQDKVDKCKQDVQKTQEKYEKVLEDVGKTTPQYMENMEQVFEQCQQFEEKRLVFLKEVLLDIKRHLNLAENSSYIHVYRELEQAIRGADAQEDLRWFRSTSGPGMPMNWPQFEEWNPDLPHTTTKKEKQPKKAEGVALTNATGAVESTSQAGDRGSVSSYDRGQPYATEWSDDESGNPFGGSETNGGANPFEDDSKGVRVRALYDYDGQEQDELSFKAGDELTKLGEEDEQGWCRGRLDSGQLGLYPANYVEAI
UniProt Q96BN8, whole entry, looked up: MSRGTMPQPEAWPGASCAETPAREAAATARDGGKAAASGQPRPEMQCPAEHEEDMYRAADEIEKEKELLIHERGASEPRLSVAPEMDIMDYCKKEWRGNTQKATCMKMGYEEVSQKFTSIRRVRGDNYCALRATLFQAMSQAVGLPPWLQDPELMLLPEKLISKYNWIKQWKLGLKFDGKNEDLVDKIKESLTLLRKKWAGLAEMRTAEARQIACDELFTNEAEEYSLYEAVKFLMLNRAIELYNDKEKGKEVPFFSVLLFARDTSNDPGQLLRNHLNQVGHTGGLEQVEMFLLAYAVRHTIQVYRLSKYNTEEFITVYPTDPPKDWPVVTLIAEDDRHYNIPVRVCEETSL
UniProt O15460: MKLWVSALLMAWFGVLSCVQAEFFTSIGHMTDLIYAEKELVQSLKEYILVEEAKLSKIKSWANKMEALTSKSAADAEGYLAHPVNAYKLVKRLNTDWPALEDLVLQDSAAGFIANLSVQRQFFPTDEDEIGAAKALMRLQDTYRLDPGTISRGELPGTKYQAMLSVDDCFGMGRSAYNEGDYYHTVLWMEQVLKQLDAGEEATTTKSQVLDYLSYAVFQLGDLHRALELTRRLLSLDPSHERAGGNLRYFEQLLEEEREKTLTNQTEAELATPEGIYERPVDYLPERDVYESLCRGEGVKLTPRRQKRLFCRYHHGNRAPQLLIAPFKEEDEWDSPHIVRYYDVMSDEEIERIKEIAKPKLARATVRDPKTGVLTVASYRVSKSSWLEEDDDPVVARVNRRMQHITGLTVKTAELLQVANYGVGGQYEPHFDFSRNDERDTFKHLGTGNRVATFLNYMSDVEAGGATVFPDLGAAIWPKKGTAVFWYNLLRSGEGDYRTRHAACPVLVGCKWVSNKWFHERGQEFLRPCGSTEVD
UniProt Q9UKK6: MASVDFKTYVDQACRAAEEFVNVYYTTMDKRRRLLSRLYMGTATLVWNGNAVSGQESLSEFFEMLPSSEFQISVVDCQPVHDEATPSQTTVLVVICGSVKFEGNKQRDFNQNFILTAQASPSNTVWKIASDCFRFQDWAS
UniProt Q9H8K7: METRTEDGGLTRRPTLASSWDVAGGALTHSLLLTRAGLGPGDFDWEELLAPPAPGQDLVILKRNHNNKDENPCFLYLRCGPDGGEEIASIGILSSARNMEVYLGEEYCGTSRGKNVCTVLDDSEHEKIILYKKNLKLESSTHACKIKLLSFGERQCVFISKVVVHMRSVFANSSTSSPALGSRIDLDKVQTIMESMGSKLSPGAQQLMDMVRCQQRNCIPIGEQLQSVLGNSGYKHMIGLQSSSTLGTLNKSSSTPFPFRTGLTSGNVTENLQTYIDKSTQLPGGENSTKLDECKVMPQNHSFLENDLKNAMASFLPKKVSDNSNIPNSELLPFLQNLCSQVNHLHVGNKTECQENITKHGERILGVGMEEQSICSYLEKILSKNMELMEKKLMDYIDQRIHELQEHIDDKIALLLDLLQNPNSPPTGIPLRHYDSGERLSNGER
UniProt P35658: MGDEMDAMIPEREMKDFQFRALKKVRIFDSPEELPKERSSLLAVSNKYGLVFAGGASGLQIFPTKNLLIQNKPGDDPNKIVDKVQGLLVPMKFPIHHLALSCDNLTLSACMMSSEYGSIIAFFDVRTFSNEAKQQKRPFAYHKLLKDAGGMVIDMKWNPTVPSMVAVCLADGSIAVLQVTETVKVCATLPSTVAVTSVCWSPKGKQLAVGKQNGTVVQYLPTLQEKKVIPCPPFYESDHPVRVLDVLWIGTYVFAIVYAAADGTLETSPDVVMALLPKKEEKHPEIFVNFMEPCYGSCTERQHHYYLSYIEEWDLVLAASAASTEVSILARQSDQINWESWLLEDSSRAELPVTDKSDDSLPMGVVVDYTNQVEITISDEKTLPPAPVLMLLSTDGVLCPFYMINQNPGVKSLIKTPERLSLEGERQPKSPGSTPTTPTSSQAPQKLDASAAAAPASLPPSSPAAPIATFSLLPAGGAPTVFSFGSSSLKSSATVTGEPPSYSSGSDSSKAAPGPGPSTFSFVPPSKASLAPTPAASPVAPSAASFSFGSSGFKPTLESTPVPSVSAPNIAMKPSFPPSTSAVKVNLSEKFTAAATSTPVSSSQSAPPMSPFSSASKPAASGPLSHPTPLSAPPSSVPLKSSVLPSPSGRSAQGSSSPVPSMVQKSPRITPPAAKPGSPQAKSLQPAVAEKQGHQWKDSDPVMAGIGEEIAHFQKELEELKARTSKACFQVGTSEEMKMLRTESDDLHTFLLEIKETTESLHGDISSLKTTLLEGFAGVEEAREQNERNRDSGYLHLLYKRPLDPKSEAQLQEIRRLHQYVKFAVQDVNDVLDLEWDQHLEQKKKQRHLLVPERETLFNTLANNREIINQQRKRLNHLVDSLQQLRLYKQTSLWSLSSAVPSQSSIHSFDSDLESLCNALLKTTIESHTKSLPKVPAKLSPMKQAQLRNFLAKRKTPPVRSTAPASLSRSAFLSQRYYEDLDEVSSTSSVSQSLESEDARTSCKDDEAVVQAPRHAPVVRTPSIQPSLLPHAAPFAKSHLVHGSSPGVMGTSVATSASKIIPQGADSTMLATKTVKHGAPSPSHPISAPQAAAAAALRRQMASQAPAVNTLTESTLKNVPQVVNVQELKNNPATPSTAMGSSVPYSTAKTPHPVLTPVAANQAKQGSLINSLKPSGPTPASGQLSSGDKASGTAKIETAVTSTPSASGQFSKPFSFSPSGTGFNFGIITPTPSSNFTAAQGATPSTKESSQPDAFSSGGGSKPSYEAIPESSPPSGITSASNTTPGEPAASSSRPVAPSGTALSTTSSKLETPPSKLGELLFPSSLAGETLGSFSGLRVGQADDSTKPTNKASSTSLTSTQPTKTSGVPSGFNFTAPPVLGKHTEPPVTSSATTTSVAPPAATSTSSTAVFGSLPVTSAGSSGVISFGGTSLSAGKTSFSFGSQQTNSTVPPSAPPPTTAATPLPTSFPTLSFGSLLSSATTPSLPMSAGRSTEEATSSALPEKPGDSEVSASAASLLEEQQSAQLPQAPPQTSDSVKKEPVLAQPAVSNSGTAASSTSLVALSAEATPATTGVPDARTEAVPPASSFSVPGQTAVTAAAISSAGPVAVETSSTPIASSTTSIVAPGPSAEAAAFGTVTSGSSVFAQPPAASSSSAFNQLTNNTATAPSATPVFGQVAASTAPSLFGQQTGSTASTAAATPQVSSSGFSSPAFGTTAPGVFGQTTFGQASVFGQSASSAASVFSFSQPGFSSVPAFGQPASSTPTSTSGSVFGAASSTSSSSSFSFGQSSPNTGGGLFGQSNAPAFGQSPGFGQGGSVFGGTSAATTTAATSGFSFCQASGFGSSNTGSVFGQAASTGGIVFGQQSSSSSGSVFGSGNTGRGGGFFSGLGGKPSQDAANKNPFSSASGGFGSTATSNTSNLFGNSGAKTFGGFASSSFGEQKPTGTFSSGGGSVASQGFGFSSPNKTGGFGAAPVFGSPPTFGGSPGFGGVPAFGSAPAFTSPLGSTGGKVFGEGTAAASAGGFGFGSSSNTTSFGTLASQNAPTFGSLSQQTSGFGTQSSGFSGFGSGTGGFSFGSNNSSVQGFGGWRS
UniProt Q9Y5N6: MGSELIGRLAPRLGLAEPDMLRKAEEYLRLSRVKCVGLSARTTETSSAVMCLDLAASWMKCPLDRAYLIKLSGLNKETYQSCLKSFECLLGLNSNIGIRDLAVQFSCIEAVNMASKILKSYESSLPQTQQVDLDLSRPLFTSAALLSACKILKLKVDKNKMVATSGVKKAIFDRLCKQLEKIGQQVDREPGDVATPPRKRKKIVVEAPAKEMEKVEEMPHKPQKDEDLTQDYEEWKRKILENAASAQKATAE
UniProt O60829: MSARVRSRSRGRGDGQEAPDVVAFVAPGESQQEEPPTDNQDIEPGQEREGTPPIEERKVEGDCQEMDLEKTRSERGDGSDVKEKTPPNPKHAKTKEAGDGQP
UniProt Q9UKX7: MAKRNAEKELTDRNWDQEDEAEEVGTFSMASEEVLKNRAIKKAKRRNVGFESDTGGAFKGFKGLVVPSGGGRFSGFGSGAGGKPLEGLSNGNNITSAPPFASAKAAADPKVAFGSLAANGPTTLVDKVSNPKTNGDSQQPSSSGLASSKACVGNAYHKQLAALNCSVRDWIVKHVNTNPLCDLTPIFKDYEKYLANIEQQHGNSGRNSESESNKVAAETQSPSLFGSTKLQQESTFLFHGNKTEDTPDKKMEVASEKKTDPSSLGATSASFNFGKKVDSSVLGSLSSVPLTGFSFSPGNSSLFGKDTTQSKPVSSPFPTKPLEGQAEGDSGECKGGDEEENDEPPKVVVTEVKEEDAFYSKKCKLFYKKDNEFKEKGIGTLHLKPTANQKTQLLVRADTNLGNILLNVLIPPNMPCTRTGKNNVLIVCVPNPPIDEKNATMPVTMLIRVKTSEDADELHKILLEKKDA
UniProt Q13438: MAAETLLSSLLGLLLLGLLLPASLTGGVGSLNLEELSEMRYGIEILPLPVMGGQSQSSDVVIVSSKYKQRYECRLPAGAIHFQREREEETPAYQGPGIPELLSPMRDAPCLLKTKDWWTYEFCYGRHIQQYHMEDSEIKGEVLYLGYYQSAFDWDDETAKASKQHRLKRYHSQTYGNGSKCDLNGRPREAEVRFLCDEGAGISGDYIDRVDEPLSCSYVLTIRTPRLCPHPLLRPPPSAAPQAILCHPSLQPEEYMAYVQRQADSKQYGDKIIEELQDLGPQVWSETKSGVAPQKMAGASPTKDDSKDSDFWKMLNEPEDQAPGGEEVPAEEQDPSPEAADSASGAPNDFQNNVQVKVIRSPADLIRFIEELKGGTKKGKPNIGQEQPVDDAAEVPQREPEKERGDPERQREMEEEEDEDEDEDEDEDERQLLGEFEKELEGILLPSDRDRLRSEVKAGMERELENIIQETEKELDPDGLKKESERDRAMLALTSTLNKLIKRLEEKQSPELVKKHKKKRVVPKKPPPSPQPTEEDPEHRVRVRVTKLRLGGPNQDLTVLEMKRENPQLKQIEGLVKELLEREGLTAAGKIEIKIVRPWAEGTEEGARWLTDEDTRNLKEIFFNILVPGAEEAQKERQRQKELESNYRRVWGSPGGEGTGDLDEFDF
UniProt O75459: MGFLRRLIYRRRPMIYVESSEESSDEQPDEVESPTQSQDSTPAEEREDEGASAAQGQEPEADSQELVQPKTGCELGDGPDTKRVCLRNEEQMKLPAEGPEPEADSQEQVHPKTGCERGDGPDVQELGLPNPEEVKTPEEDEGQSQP
UniProt O75781: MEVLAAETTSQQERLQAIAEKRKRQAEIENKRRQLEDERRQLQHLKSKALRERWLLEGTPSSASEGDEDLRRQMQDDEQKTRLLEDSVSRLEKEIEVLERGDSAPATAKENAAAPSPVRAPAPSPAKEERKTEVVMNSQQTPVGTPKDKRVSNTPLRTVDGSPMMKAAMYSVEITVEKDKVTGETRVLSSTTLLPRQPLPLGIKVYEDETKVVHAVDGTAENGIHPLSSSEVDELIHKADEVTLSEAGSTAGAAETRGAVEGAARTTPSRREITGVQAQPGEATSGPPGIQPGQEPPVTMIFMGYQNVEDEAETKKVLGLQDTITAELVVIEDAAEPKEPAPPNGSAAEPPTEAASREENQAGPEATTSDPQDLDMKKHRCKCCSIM

How the values were obtained:
Assay in all cases: log2 fold change, soluble protein after heating vs DMSO (PISA); higher = thermal stabilisation; K562 lysate, 10 uM; active = over 0.2 and 3.5 SD of the protein, either way, in both replicates (recomputed)
[1] = compound: C=CC(=O)N1CCC[C@@H](n2nc(-c3ccc(Oc4ccccc4)cc3)c3c(N)ncnc32)C1 [ibrutinib]
How it was run: (§1)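 Pellets of K562 cells were dounce-homogenised in PBS pH 7.4 with 1 mM MgCl2, and the crude extract was held at 1 mg/mL protein for a 30 min treatment with 10 μM compound. Aliquots were heated for 3 min over 48°C-58°C and pooled before NP-40 was added to 0.5% at 4°C. The supernatant from 21,000xg for 90 min was quantified by TMTpro 16plex LC-MS/MS with channel sums equalised. Values are reported from duplicates as log-two fold change in thermal stability relative to solvent controls.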

[2] = compound: CC(=O)c1cnc2ccc(-c3cc(Cl)c(O)c(Cl)c3)nc2c1N[C@H]1CC[C@H](CN(C)C)CC1
How it was run: as §1

[3] = compound: CC1=C(C=C(C=C1)NC(=O)C2=CC(=CC=C2)C(C)(C)C#N)NC3=CC4=C(C=C3)N=CN(C4=O)C
How it was run: as §1

[4] = compound: CC1=CC=C(C=C1)SC2=C3C=C(SC3=CN=C2)C(=O)N
How it was run: as §1

[5] = compound: CCCS(=O)(=O)Nc1ccc(F)c(C(=O)c2c[nH]c3ncc(-c4ccc(Cl)cc4)cc23)c1F [vemurafenib]
How it was run: as §1

[6] = compound: CCCS(=O)(=O)Nc1ccc(F)c(C(=O)c2c[nH]c3ncc(Cl)cc23)c1F
How it was run: as §1

[7] = compound: CCN(CCCOc1ccc2c(Nc3cc(CC(=O)Nc4cccc(F)c4)[nH]n3)ncnc2c1)CCOP(=O)(O)O [barasertib]
How it was run: as §1

[8] = compound: CC[C@@H]1C(=O)N(C)c2cnc(Nc3ccc(C(=O)NC4CCN(C)CC4)cc3OC)nc2N1C1CCCC1
How it was run: as §1

[9] = compound: CC[C@@H]1C(=O)N(C)c2cnc(Nc3ccc(C(=O)N[C@H]4CC[C@H](N5CCN(CC6CC6)CC5)CC4)cc3OC)nc2N1C(C)C [volasertib]
How it was run: as §1

[10] = compound: CN1CCN(c2nc(C3=C(c4c[nH]c5ccccc45)C(=O)NC3=O)c3ccccc3n2)CC1 [sotrastaurin]
How it was run: as §1

[11] = compound: CC(C)(C)Cn1c(N)nc2ccc(-c3[nH]c(C(C)(C)C)nc3-c3ccc(F)cc3)nc21 [ralimetinib]
How it was run: as §1

[12] = compound: CC(C)(O)CC(=O)NCCn1ccc2ncnc(Nc3ccc(Oc4cccc(C(F)(F)F)c4)c(Cl)c3)c21
How it was run: as §1

[13] = compound: CC(C)C1=C2N=C(C=C(N2N=C1)NCC3=CC=CC=C3)NCCCCCCN
How it was run: as §1

[14] = compound: CC1=C(C(CC(=O)N1)C2=CC=C(C=C2)C(F)(F)F)C(=O)NC3=C(C=C4C(=C3)C=NN4)F
How it was run: as §1

[15] = compound: CC1=C(C2=C(C=C1)C(=O)C3=CC=CC=C3N2CCCN)C
How it was run: as §1

[16] = compound: CC1=C(C=C(C=C1)NC(=O)C2=CC(=CC=C2)N(C)C)NC(=O)C3=CC=C(C=C3)O
How it was run: as §1

[17] = compound: CCn1c(C(=O)N(C2CC2)C2CC2)cc2c3c(ncn3C)c(Nc3cc(C)n(C)n3)nc21
How it was run: as §1

[18] = compound: CCn1cc(-c2ccnc3[nH]c(-c4cccc(CN(C)C)c4)cc23)c(-c2ccc(NC(=O)N(C)C)cc2)n1
How it was run: as §1

[19] = compound: CN1CCC(CNc2ccc3ncc(-c4cccc(OC(F)(F)F)c4)n3n2)CC1
How it was run: as §1

[20] = compound: CN1CCN(CCOc2cc(OC3CCOCC3)c3c(Nc4c(Cl)ccc5c4OCO5)ncnc3c2)CC1 [saracatinib]
How it was run: as §1

Measured: log2 fold change

OSGEPL1 (UniProt Q9H4B0)
inactive: [1] -0.074 | [2] -0.057 | [3] 0.04 | [4] 0.124 | [5] 0.078 | [6] 0.009 | [7] -0.159 | [8] -0.058 | [9] 0.069 | [10] -0.017

OSBPL2 (UniProt Q9H1P3)
inactive: [1] 0.033 | [2] -0.042 | [11] -0.008 | [12] -0.054 | [13] -0.009 | [14] 0 | [15] 0.03 | [3] -0.079 | [16] 0.021 | [4] 0.012 | [5] 0.026 | [6] -0.061 | [7] 0.029 | [8] -0.048 | [9] -0.103 | [17] 0.044 | [18] -0.227 | [19] -0.033 | [20] 0.01 | [10] -0.014

PACSIN1 (UniProt Q9BY11)
inactive: [1] -0.038 | [2] -0.011 | [11] 0.034 | [12] -0.009 | [13] 0.054 | [14] 0.115 | [15] -0.058 | [16] 0.051 | [4] -0.028 | [5] -0.021 | [6] -0.051 | [7] -0.008 | [8] 0.013 | [9] 0.033 | [17] 0.014 | [18] 0.014 | [19] 0.032 | [20] 0.037

Two successive entries from above, for reference:
OSBPL2 (UniProt Q9H1P3)
inactive: [1] 0.033 | [2] -0.042 | [11] -0.008 | [12] -0.054 | [13] -0.009 | [14] 0 | [15] 0.03 | [3] -0.079 | [16] 0.021 | [4] 0.012 | [5] 0.026 | [6] -0.061 | [7] 0.029 | [8] -0.048 | [9] -0.103 | [17] 0.044 | [18] -0.227 | [19] -0.033 | [20] 0.01 | [10] -0.014

PACSIN1 (UniProt Q9BY11)
inactive: [1] -0.038 | [2] -0.011 | [11] 0.034 | [12] -0.009 | [13] 0.054 | [14] 0.115 | [15] -0.058 | [16] 0.051 | [4] -0.028 | [5] -0.021 | [6] -0.051 | [7] -0.008 | [8] 0.013 | [9] 0.033 | [17] 0.014 | [18] 0.014 | [19] 0.032 | [20] 0.037

Next part.

OTULIN (UniProt Q96BN8)
inactive: [1] 0.014 | [2] 0.024 | [11] 0.031 | [12] 0.011 | [13] -0.02 | [14] 0.01 | [15] 0 | [3] 0.115 | [16] 0.013 | [4] -0.013 | [5] -0.056 | [6] -0.003 | [7] -0.002 | [8] -0.035 | [9] -0.015 | [17] 0.036 | [18] -0.013 | [19] 0.026 | [20] 0.004 | [10] -0.029

P4HA2 (UniProt O15460)
inactive: [1] -0.028 | [2] -0.059 | [11] 0.08 | [12] 0.024 | [13] -0.023 | [15] -0.001 | [3] -0.038 | [16] -0.009 | [4] -0.062 | [5] 0.007 | [6] -0.085 | [7] 0.11 | [8] 0.055 | [9] 0.06 | [17] -0.075 | [18] 0.061 | [19] -0.065 | [20] 0.052 | [10] -0.009

NXT1 (UniProt Q9UKK6)
inactive: [1] -0.001 | [2] -0.059 | [11] 0.005 | [12] -0.114 | [13] 0.027 | [14] 0.075 | [16] 0.04 | [4] -0.107 | [5] 0.013 | [6] 0.056 | [7] 0.377 | [9] 0.032 | [17] 0.031 | [18] 0.2 | [19] 0.075

PAAT (UniProt Q9H8K7)
inactive: [1] -0.011 | [2] -0.047 | [11] -0.064 | [12] -0.01 | [13] -0.062 | [15] 0.01 | [3] 0.059 | [16] 0.04 | [4] -0.077 | [5] 0.02 | [6] -0.024 | [7] -0.016 | [8] -0.05 | [9] 0.116 | [17] 0.018 | [18] 0.061 | [19] -0.042 | [20] -0.001 | [10] -0.034

NUP214 isoform 4 (UniProt P35658)
inactive: [1] -0.022 | [2] 0.053 | [11] 0.292 | [12] 0.137 | [13] -0.333 | [14] 0.18 | [16] -0.322 | [4] -0.006 | [6] 0.08 | [7] 0.027 | [9] -0.012 | [17] -0.366 | [18] -0.039 | [19] 0.047

ORC6 (UniProt Q9Y5N6)
inactive: [1] 0.01 | [11] 0.034 | [12] 0.079 | [13] 0.003 | [14] 0.029 | [15] 0.001 | [3] 0.01 | [16] -0.005 | [5] -0.166 | [7] 0.003 | [8] 0.098 | [17] 0.014 | [18] 0.226 | [19] -0.097 | [20] 0.036 | [10] -0.018

PAGE4 (UniProt O60829)
inactive: [1] 0.056 | [2] -0.029 | [11] 0.028 | [12] -0.077 | [13] 0.072 | [15] -0.014 | [3] 0.04 | [16] 0.078 | [4] 0.004 | [6] 0.015 | [7] 0.108 | [8] 0.039 | [9] 0.002 | [17] -0.042 | [18] 0.476 | [19] -0.158 | [20] 0.046 | [10] 0.092

NUP50 (UniProt Q9UKX7)
inactive: [1] 0.018 | [2] 0.002 | [11] -0.024 | [12] -0.024 | [13] -0.025 | [14] 0.033 | [15] -0.011 | [3] 0.003 | [16] 0.019 | [4] -0.011 | [5] 0.057 | [6] -0.003 | [7] -0.014 | [8] 0.067 | [9] 0.003 | [17] -0.012 | [18] -0.183 | [19] 0.072 | [20] 0.023 | [10] -0.003

PAPSS2 isoform 2 (UniProt O95340)
inactive: [1] -0.018 | [2] -0.085 | [4] -0.12 | [5] 0.044 | [6] -0.013 | [7] 0.047 | [8] 0.054 | [9] -0.02 | [18] -0.511 | [19] 0.12

OS9 (UniProt Q13438)
inactive: [1] 0.007 | [2] 0.003 | [11] 0.026 | [12] -0.017 | [13] -0.02 | [14] 0.024 | [15] 0.019 | [3] -0.007 | [16] 0.017 | [4] -0.01 | [5] 0.024 | [6] 0.021 | [7] -0.009 | [8] -0.008 | [9] 0.004 | [17] 0.013 | [18] -0.081 | [19] 0.037 | [20] -0.012 | [10] 0.006

PAGE1 (UniProt O75459)
inactive: [1] -0.068 | [2] -0.002 | [11] -0.036 | [12] 0.01 | [13] -0.003 | [14] -0.06 | [15] 0.018 | [3] 0.005 | [16] 0.075 | [4] -0.055 | [5] 0.026 | [6] -0.016 | [7] -0.064 | [8] 0.08 | [9] 0.071 | [17] -0.019 | [18] -0.013 | [19] -0.004 | [20] 0.028 | [10] 0.05

PALM (UniProt O75781)
inactive: [1] 0.054 | [2] 0 | [13] -0.031 | [14] 0.011 | [15] -0.062 | [3] -0.037 | [4] 0.07 | [5] -0.05 | [6] -0.047 | [7] 0.055 | [8] 0.062 | [9] -0.019 | [18] -0.061 | [19] 0.101 | [20] 0.035 | [10] 0.048
